Results are given in words; binding and its absence hold for the method and conditions named. In cells and extracts the contact can be indirect. Some results given as binding are weak or reduced against the parent protein; the word gives no strength.
How the values were obtained:
[1] = target: human SOD1 G93A expressed in transgenic mice (hSOD1^G93A) (human) (UniProt P00441); assay: co-IP; lumbar spinal cord of 120-day-old hSOD1 G93A and WT mice; precipitating antibody not told
[2] = target: V5-tagged mutant human SOD1 (hSOD1 G93A) (human) (UniProt P00441); assay: co-IP; lysates of NSC-34 cells transfected with V5-tagged WT or G93A SOD1; precipitated with V5 antibody at 4 °C for 6 h, protein A/G agarose beads; blot for V5 or TDP-43

Chains of the proteins cited; added tags and fusions are not shown. Lines headed by an entry give the natural chain unless they say otherwise; changes in a name come on top. A line that says so, or that is headed by a name, gives the form on record, which may keep a tag or linker.
UniProt P00441: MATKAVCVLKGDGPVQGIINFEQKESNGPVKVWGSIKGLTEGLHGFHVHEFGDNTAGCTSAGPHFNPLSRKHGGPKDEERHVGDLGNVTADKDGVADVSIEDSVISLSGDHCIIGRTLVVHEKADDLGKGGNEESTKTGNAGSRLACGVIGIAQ
V5-tagged mutant human SOD1 (hSOD1 G93A) (P00441, form named): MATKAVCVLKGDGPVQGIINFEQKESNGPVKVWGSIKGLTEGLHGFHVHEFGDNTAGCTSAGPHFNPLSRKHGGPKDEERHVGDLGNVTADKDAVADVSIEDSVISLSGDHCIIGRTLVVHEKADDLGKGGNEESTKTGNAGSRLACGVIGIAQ
UniProt Q921F2: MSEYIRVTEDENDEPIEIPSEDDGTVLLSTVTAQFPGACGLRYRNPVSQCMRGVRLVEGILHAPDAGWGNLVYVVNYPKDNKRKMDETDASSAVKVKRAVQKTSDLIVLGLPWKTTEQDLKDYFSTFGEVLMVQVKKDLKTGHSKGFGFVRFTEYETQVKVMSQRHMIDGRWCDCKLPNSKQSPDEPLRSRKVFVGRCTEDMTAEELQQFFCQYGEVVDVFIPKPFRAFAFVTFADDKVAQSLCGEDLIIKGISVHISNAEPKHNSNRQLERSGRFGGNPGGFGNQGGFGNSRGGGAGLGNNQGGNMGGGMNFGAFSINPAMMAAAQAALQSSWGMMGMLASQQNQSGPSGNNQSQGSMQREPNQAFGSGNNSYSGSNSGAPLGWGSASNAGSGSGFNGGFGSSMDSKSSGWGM

binding [1] | binding [2] | Substance
binds | – | TAR DNA-binding protein 43 (TDP-43) in mouse spinal cord (from UniProt Q921F2 1-414)
– | binds | TAR DNA-binding protein 43 (TDP-43) in NSC-34 cells (from UniProt Q921F2 1-414)

From paper PMC6394608
